Test results reported in publication PMC7349238.
Results are given in words; binding and its absence hold for the method and conditions named. In cells and extracts the contact can be indirect. A yes stands for co-enrichment or nearness to the bait. Other partners may have been found.

Chains of the proteins cited; added tags and fusions are not shown.
UniProt P35637: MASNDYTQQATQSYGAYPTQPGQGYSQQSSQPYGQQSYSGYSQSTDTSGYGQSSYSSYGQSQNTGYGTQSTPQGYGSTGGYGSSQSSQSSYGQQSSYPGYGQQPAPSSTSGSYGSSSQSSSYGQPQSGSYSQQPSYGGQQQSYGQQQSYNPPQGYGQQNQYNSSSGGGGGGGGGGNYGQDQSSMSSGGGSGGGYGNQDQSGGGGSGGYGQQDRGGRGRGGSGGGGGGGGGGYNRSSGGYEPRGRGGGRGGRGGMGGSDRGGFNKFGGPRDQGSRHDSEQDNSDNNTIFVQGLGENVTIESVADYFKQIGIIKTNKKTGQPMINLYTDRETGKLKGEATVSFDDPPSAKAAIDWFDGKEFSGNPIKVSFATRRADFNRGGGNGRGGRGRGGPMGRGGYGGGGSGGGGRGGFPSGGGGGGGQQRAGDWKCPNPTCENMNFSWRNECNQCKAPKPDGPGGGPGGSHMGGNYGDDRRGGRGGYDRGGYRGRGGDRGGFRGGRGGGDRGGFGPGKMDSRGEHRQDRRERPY

T1: Paraspeckle protein 1 (PSPC1) (human (endogenous in Huh7)) (UniProt Q8WXF1)
T1 sequence: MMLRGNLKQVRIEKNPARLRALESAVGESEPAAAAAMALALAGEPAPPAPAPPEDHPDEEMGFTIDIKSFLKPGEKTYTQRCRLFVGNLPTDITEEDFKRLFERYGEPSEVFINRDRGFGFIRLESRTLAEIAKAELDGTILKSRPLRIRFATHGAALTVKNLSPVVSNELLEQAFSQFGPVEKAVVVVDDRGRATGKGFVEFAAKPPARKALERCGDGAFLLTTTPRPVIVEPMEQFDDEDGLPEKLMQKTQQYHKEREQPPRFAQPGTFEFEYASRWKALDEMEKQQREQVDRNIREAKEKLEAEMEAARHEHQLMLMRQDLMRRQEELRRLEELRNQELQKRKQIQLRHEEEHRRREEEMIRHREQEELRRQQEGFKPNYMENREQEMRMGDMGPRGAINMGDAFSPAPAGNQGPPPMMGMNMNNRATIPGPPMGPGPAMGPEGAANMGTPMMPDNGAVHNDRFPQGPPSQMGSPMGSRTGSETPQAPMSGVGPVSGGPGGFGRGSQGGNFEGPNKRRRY

B1: HNRNPM (protein, UniProt P52272 1-730)
chain: MAAGVEAAAEVAATEIKMEEESGAPGVPSGNGAPGPKGEGERPAQNEKRKEKNIKRGGNRFEPYANPTKRYRAFITNIPFDVKWQSLKDLVKEKVGEVTYVELLMDAEGKSRGCAVVEFKMEESMKKAAEVLNKHSLSGRPLKVKEDPDGEHARRAMQKVMATTGGMGMGPGGPGMITIPPSILNNPNIPNEIIHALQAGRLGSTVFVANLDYKVGWKKLKEVFSMAGVVVRADILEDKDGKSRGIGTVTFEQSIEAVQAISMFNGQLLFDRPMHVKMDERALPKGDFFPPERPQQLPHGLGGIGMGLGPGGQPIDANHLNKGIGMGNIGPAGMGMEGIGFGINKMGGMEGPFGGGMENMGRFGSGMNMGRINEILSNALKRGEIIAKQGGGGGGGSVPGIERMGPGIDRLGGAGMERMGAGLGHGMDRVGSEIERMGLVMDRMGSVERMGSGIERMGPLGLDHMASSIERMGQTMERIGSGVERMGAGMGFGLERMAAPIDRVGQTIERMGSGVERMGPAIERMGLSMERMVPAGMGAGLERMGPVMDRMATGLERMGANNLERMGLERMGANSLERMGLERMGANSLERMGPAMGPALGAGIERMGLAMGGGGGASFDRAIEMERGNFGGSFAGSFGGAGGHAPGVARKACQIFVRNLPFDFTWKMLKDKFNECGHVLYADIKMENGKSKGCGVVKFESPEVAERACRMMNGMKLSGREIDVRIDRNA
B2: RBM14 (protein, UniProt Q96PK6 1-669)
chain: MKIFVGNVDGADTTPEELAALFAPYGTVMSCAVMKQFAFVHMRENAGALRAIEALHGHELRPGRALVVEMSRPRPLNTWKIFVGNVSAACTSQELRSLFERRGRVIECDVVKDYAFVHMEKEADAKAAIAQLNGKEVKGKRINVELSTKGQKKGPGLAVQSGDKTKKPGAGDTAFPGTGGFSATFDYQQAFGNSTGGFDGQARQPTPPFFGRDRSPLRRSPPRASYVAPLTAQPATYRAQPSVSLGAAYRAQPSASLGVGYRTQPMTAQAASYRAQPSVSLGAPYRGQLASPSSQSAAASSLGPYGGAQPSASALSSYGGQAAAASSLNSYGAQGSSLASYGNQPSSYGAQAASSYGVRAAASSYNTQGAASSLGSYGAQAASYGAQSAASSLAYGAQAASYNAQPSASYNAQSAPYAAQQAASYSSQPAAYVAQPATAAAYASQPAAYAAQATTPMAGSYGAQPVVQTQLNSYGAQASMGLSGSYGAQSAAAATGSYGAAAAYGAQPSATLAAPYRTQSSASLAASYAAQQHPQAAASYRGQPGNAYDGAGQPSAAYLSMSQGAVANANSTPPPYERTRLSPPRASYDDPYKKAVAMSKRYGSDRRLAELSDYRRLSESQLSFRRSPTKSSLDYRRLPDAHSDYARYSGSYNDYLRAAQMHSGYQRRM

Target: T1, Paraspeckle protein 1 (PSPC1) (human (endogenous in Huh7))
Assay: affinity purification with mass spectrometry; total cell lysates of Huh7 cells immunoprecipitated with the PSPC1 antibody; SDS-PAGE, Coomassie Blue; bands excised, in-gel digestion, LC-MS/MS

binding, binds:
HNRNPK (from UniProt P61978 1-463)
FUS (from UniProt P35637 1-526)
B1
B2
